Measured values as given in PubChem BioAssay AID504467 (National Center for Advancing Translational Sciences (NCATS), 2011).
The whole screen tested about 330,000 compounds, of which about 7,700 (2.3%) were called active. The inconclusive results got no clear call from the source; some entries with a clear call stand among them for comparison. The call rests on the fitted dose curve; in most records, active means well fitted inhibition curve with a large enough effect; inconclusive means small, poorly fitted or top-dose-only effect, or effect the other way; inactive means flat fitted curve, though single readings scatter. A potency beside an inconclusive call is a rough fit, not a confirmed value.

Test: qHTS screen for small molecules that inhibit ELG1-dependent DNA repair in human embryonic kidney (HEK293T) cells expressing luciferase-tagged ELG1; further: nearly all actives have a fitted effect of over 55% in size
Settings: HEK293T ELG1-luciferase reporter, luminescence, 16 h, DNA damage induced by 5-fluorouridine; activity change, negative = inhibition: at 46.1 µM (top of the series)
Method in brief: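 5-Fluorouridine DNA damage + compound/DMSO, 2,000 cells/well, 16 h, 37 °C/5% CO2. ONE-Glo, 30 min RT, luminescence. Readout = decrease in reporter signal.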
On the % scale 0 is the no-effect control and ±100 the full control effect; potency means the concentration at half of the fitted maximal effect.

SMILES | activity change, negative = inhibition | Potency
COc1ccc(-c2cc(C(=O)NCC3CCCO3)c3cc(C(C)C)ccc3n2)cc1 (stereo not given) | inactive: -28.4% | –
CC(C)c1ccc(NC(=O)c2sccc2-n2cccc2)cc1 | – | inconclusive: 11.6 µM [activator, partial curve]
CCCCOc1ccc(S(=O)(=O)NNC(=O)C2Cc3c(ccc4ccccc34)O2)cc1 (stereo not given) | inactive: -4.97% | –
COc1ccc(NC(=O)c2ccc(CN(c3cc(Cl)ccc3C)S(=O)(=O)c3ccccc3)cc2)cc1OC | inactive: 0% | –
Cc1cc(C(=O)COC(=O)c2ccc[nH]c2=O)c(C)n1-c1ccccc1 | – | inconclusive: 0.92 µM [activator, partial curve]
Cc1nc(SCc2ccc(Cl)cc2)ncc1C(=O)O | – | inconclusive: 20.6 µM [activator, partial curve, poor fit]
CC(C)(C)OC(=O)CNC(=O)c1[nH]cnc1C(=O)NCCCCCNC(=O)OC(C)(C)C | – | inconclusive: 7.3 µM [inhibitor, partial curve, poor fit]
Cc1ccccc1OCCNC(=O)/C=C/c1ccccc1 | – | inconclusive: 16.4 µM [activator, partial curve, poor fit]
COc1ccc(C(=O)NC(=S)Nc2ccccc2N2CCOCC2)cc1[N+](=O)[O-] | – | active: 18.4 µM
CCCCNc1c(-c2ccc(-c3ccc(C(C)=O)cc3)c(OC)c2)nc2cc(C)ccn12 | – | inconclusive: 29.1 µM [inhibitor, single point]
CCOc1cc(/C=C2\CN(CC)C/C(=C\c3ccc(O)c(OCC)c3)C2=O)ccc1O | – | inconclusive: 29.1 µM [inhibitor, single point]
COc1ccc(NC2=C(C(C)=O)C(c3ccc(OC)c(OC)c3)C(C(C)=O)C(C)(O)C2)cc1 (stereo not given) | – | inconclusive: 23.1 µM [activator, partial curve, poor fit]
O=C(CP(=O)(c1ccccc1)c1ccccc1)Nc1nc2ccc(Cl)cc2s1 | inactive: -9.36% | –
CCOC(=O)CNC(=O)c1ccc(OCC(F)(F)F)cc1 | – | inconclusive: 18.3 µM [activator, partial curve]
CC(=O)c1cccc(NC(=O)C2CCN(S(=O)(=O)c3ccc(C)cc3)CC2)c1 | inactive: -25.7% | –
CC(C)(C)C(=O)Nc1nnc(SCC(=O)Nc2nccs2)s1 | inactive: 6.92% | –
COc1ccc([C@H]2CC(=O)C=C(c3cccc4c3Oc3ccccc3S4)C2)cc1OC | – | active: 18.3 µM
CCOCC(=O)Nc1ccc2c(c1)N(S(=O)(=O)c1cccs1)CCC2 | inactive: -1.83% | –
CC(NC(=O)COc1ccccc1)C(=O)N1CCN(c2ccc(F)cc2)CC1 (stereo not given) | inactive: 19.7% | –
O=C(Nc1ccc2nc(-c3ccccc3)[nH]c2c1)c1cccs1 | – | inconclusive: 3.66 µM [activator, full curve, poor fit]

3 compounds out of the list, arranged by count of non-hydrogen atoms, smallest number first:
SMILES | activity change, negative = inhibition | Potency
Cc1nc(SCc2ccc(Cl)cc2)ncc1C(=O)O | – | inconclusive: 20.6 µM [activator, partial curve, poor fit]
CC(C)(C)OC(=O)CNC(=O)c1[nH]cnc1C(=O)NCCCCCNC(=O)OC(C)(C)C | – | inconclusive: 7.3 µM [inhibitor, partial curve, poor fit]
COc1ccc(NC(=O)c2ccc(CN(c3cc(Cl)ccc3C)S(=O)(=O)c3ccccc3)cc2)cc1OC | inactive: 0% | –
